Measured values: patent US20050245738A1, “Stable bioavailable crystalline form or cefdinir and a process for the preparation thereof” (LUPIN LTD, priority 2004, published 2005)
At least one compound was matched to its structure with a doubt left.

Experiment: Dissolution rate in 0.07 N Hydrochloric acid
Type: physicochemical

C=CC1=C(C(=O)O)N2C(=O)[C@@H](NC(=O)/C(=N\O)c3csc(N)n3)[C@H]2SC1 [“Crystal A” form of Cefdinir Prepared as per the Method of U]
IDR: Intrinsic Dissolution Rate: 0.0601 mg/cm^2/min
Dissolution Profile (15 Mins): 2.31 mg/cm^2
Dissolution Profile (30 Mins): 3.40 mg/cm^2
Dissolution Profile (45 Mins): 4.40 mg/cm^2
Dissolution Profile (60 Mins): 5.16 mg/cm^2
Dissolution Profile (75 Mins): 6.32 mg/cm^2
Dissolution Profile (90 Mins): 7.23 mg/cm^2
Dissolution Profile (105 Mins): 7.86 mg/cm^2
Dissolution Profile (120 Mins): 8.57 mg/cm^2
